The record followed here is paper doi:10.1101/2021.02.07.430167 (bioRxiv, 2021).

Sequences of proteins named here, by UniProt entry; tags and fusion partners are left off. A change or cut given only in a name is not applied to a line headed by its entry. Residues count along the entry.
UniProt P08138, 29-427: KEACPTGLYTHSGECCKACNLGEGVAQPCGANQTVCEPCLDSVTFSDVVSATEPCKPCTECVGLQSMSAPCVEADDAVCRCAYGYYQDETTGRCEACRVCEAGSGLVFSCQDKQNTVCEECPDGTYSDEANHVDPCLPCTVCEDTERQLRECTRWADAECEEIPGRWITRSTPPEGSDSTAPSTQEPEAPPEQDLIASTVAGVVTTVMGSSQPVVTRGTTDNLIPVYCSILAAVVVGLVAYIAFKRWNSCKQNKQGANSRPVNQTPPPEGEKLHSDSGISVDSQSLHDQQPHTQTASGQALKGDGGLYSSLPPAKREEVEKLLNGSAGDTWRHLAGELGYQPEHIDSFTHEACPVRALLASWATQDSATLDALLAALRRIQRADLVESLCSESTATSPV
UniProt P08138, whole entry, looked up, stated change not applied: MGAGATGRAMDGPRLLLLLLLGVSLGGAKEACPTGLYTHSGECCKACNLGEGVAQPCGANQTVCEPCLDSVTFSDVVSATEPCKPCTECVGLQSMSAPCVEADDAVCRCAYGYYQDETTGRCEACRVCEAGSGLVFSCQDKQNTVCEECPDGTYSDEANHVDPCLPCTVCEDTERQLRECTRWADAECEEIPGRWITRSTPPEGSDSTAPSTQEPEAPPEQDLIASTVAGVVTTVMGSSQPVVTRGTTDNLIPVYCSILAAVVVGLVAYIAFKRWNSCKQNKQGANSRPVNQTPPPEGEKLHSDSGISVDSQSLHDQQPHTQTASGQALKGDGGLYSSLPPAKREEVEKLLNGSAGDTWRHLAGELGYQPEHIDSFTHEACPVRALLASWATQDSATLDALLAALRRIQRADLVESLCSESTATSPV

These are yes or no findings as the source states them, for the method shown. In cells and extracts the contact can be indirect. Some entries that bind do so weakly or less than the wild type. For part of these data: Sequences can lack the tags named with a protein.

The target of experiment [1] is full-length HA-tagged human p75NTR (human) (UniProt P08138). Nature of the experiment: proximity ligation.
Experiment [2] shares this target. Nature of the experiment: co-IP.
Experiment [3] concerns the target full-length HA-tagged human p75NTR K349A (human) (UniProt P08138). Put plainly: co-IP.

B1: TRADD of mouse cerebellar granule neurons (protein, UniProt Q3U0V2 1-310)
chain: MAAGQNGHEEWVGSAYLFLESAVDKVILSEAYTDPKKKVAIYKALQTALSESGDSSDVLQILKIHCSDPQLIVQLRFCGRVLCGRFLQAYREGALRTALQRCMAPALAQEALRLQLELRAGAEQLDSWLTDEERCLNYILAQKPDRLRDEELAELEDELCKLTCDCTGQGGAIQVASAGSKFPVSSPTEEKPLPAACQTFLFHGQLVVNRPLTLQDQQTFARSVGLKWRRVGRSLQRNCRALRDPALDSLAYEYERDGLYEQAFQLLRRFMQAEGRRATLQRLVEALEENELTSLAEDLLGQAEPDGGLA
Regarding B1, in experiment [1], the binding entry is “binds”.

B2: full-length Myc-tagged human TRADD (protein, UniProt Q15628 1-312)
chain: MAAGQNGHEEWVGSAYLFVESSLDKVVLSDAYAHPQQKVAVYRALQAALAESGGSPDVLQMLKIHRSDPQLIVQLRFCGRQPCGRFLRAYREGALRAALQRSLAAALAQHSVPLQLELRAGAERLDALLADEERCLSCILAQQPDRLRDEELAELEDALRNLKCGSGARGGDGEVASAPLQPPVPSLSEVKPPPPPPPAQTFLFQGQPVVNRPLSLKDQQTFARSVGLKWRKVGRSLQRGCRALRDPALDSLAYEYEREGLYEQAFQLLRRFVQAEGRRATLQRLVEALEENELTSLAEDLLGLTDPNGGLA
For B2, the binding entry in experiment [2] is “binds”; in experiment [3], “no binding”.
